The other results are listed elsewhere or left out. Only a few entries rise above the background.
What was measured:
Assay in all cases: fluorescence intensity of antibody binding to polysaccharide-coupled beads; higher = stronger binding
[1] = target: pneumococcal polysaccharide Pn44
[2] = target: pneumococcal polysaccharide Pn45
[3] = target: pneumococcal polysaccharide Pn46
[4] = target: pneumococcal polysaccharide Pn47A
[5] = target: pneumococcal polysaccharide Pn47F
[6] = target: pneumococcal polysaccharide Pn48
[7] = target: pneumococcal polysaccharide Pn5
[8] = target: pneumococcal polysaccharide Pn6A
[9] = target: pneumococcal polysaccharide Pn6B
[10] = target: pneumococcal polysaccharide Pn6C
[11] = target: pneumococcal polysaccharide Pn6D
[12] = target: pneumococcal polysaccharide Pn7A
[13] = target: pneumococcal polysaccharide Pn7B
[14] = target: pneumococcal polysaccharide Pn7C
[15] = target: pneumococcal polysaccharide Pn7F
[16] = target: pneumococcal polysaccharide Pn8
[17] = target: pneumococcal polysaccharide Pn9A
[18] = target: pneumococcal polysaccharide Pn9L
[19] = target: pneumococcal polysaccharide Pn9N
[20] = target: pneumococcal polysaccharide Pn9V
[21] = antibody concentration 0.1 ng/mL
[22] = antibody concentration 0.534724 ng/mL
[23] = antibody concentration 2.8593 ng/mL
[24] = antibody concentration 15.2894 ng/mL
[25] = antibody concentration 81.7561 ng/mL
[26] = antibody concentration 437.17 ng/mL
[27] = antibody concentration 2337.65 ng/mL
[28] = antibody concentration 12500 ng/mL

B1: 4-173.2 (protein)
chain 1: QLQLQESGPGLVKPSETLSLTCAVSGGSINSNYWSWIRQPPGKGLDWIGRISGSGGSTDYNPSLKSRVTISTDTSKTQFSLKLRSVTAADTAVYYCGRGSYQIDYWGQGILVTVSS
chain 2: QAALTQPPSMSGSPGQSVTISCTGTSSDIGGYNRVSWYQQYPGKAPKLMIYEVSKRPSGVSDRFSGSKSGNTASLTISGLQAADEADYYCSSYAGSKALFGGGTRLTVL
- fluorescence intensity [1, 21]: 25.2 MFI
- fluorescence intensity [1, 22]: 25 MFI
- fluorescence intensity [1, 23]: 26 MFI
- fluorescence intensity [1, 24]: 24.5 MFI
- fluorescence intensity [1, 25]: 26 MFI
- fluorescence intensity [1, 26]: 26.5 MFI
- fluorescence intensity [1, 27]: 28 MFI
- fluorescence intensity [1, 28]: 39 MFI
- fluorescence intensity [2, 21]: 10.8 MFI
- fluorescence intensity [2, 22]: 11 MFI
- fluorescence intensity [2, 23]: 10.5 MFI
- fluorescence intensity [2, 24]: 11.5 MFI
- fluorescence intensity [2, 25]: 11.5 MFI
- fluorescence intensity [2, 26]: 12.5 MFI
- fluorescence intensity [2, 27]: 14.5 MFI
- fluorescence intensity [2, 28]: 19 MFI
- fluorescence intensity [3, 21]: 24.5 MFI
- fluorescence intensity [3, 22]: 23 MFI
- fluorescence intensity [3, 23]: 24.5 MFI
- fluorescence intensity [3, 24]: 24 MFI
- fluorescence intensity [3, 25]: 24 MFI
- fluorescence intensity [3, 26]: 24.5 MFI
- fluorescence intensity [3, 27]: 30.5 MFI
- fluorescence intensity [3, 28]: 81.8 MFI
- fluorescence intensity [4, 21]: 15.5 MFI
- fluorescence intensity [4, 22]: 14.8 MFI
- fluorescence intensity [4, 23]: 15.5 MFI
- fluorescence intensity [4, 24]: 15.5 MFI
- fluorescence intensity [4, 25]: 16.8 MFI
- fluorescence intensity [4, 26]: 16 MFI
- fluorescence intensity [4, 27]: 17 MFI
- fluorescence intensity [4, 28]: 30 MFI
- fluorescence intensity [5, 21]: 11.5 MFI
- fluorescence intensity [5, 22]: 11 MFI
- fluorescence intensity [5, 23]: 12.5 MFI
- fluorescence intensity [5, 24]: 11 MFI
- fluorescence intensity [5, 25]: 12 MFI
- fluorescence intensity [5, 26]: 12 MFI
- fluorescence intensity [5, 27]: 17 MFI
- fluorescence intensity [5, 28]: 69.8 MFI
- fluorescence intensity [6, 21]: 23 MFI
- fluorescence intensity [6, 22]: 23.2 MFI
- fluorescence intensity [6, 23]: 21.5 MFI
- fluorescence intensity [6, 24]: 22.5 MFI
- fluorescence intensity [6, 25]: 24 MFI
- fluorescence intensity [6, 26]: 25.5 MFI
- fluorescence intensity [6, 27]: 35 MFI
- fluorescence intensity [6, 28]: 47 MFI
- fluorescence intensity [7, 21]: 8 MFI
- fluorescence intensity [7, 22]: 9.5 MFI
- fluorescence intensity [7, 23]: 9.5 MFI
- fluorescence intensity [7, 24]: 9 MFI
- fluorescence intensity [7, 25]: 9 MFI
- fluorescence intensity [7, 26]: 10.8 MFI
- fluorescence intensity [7, 27]: 16.5 MFI
- fluorescence intensity [7, 28]: 103 MFI
- fluorescence intensity [8, 21]: 20.8 MFI
- fluorescence intensity [8, 22]: 21 MFI
- fluorescence intensity [8, 23]: 22 MFI
- fluorescence intensity [8, 24]: 22.8 MFI
- fluorescence intensity [8, 25]: 24.5 MFI
- fluorescence intensity [8, 26]: 25.5 MFI
- fluorescence intensity [8, 27]: 30.5 MFI
- fluorescence intensity [8, 28]: 42.2 MFI
- fluorescence intensity [9, 21]: 18.2 MFI
- fluorescence intensity [9, 22]: 19 MFI
- fluorescence intensity [9, 23]: 19.2 MFI
- fluorescence intensity [9, 24]: 19 MFI
- fluorescence intensity [9, 25]: 19 MFI
- fluorescence intensity [9, 26]: 22.8 MFI
- fluorescence intensity [9, 27]: 23 MFI
- fluorescence intensity [9, 28]: 35 MFI
- fluorescence intensity [10, 21]: 19.5 MFI
- fluorescence intensity [10, 22]: 18 MFI
- fluorescence intensity [10, 23]: 29 MFI
- fluorescence intensity [10, 24]: 40 MFI
- fluorescence intensity [10, 25]: 59 MFI
- fluorescence intensity [10, 26]: 49.8 MFI
- fluorescence intensity [10, 27]: 54.2 MFI
- fluorescence intensity [10, 28]: 76 MFI
- fluorescence intensity [11, 21]: 17.8 MFI
- fluorescence intensity [11, 22]: 16.8 MFI
- fluorescence intensity [11, 23]: 14.5 MFI
- fluorescence intensity [11, 24]: 15 MFI
- fluorescence intensity [11, 25]: 17.5 MFI
- fluorescence intensity [11, 26]: 17.5 MFI
- fluorescence intensity [11, 27]: 20.5 MFI
- fluorescence intensity [11, 28]: 31 MFI
- fluorescence intensity [12, 21]: 20.8 MFI
- fluorescence intensity [12, 22]: 18.5 MFI
- fluorescence intensity [12, 23]: 20 MFI
- fluorescence intensity [12, 24]: 20 MFI
- fluorescence intensity [12, 25]: 21 MFI
- fluorescence intensity [12, 26]: 23.2 MFI
- fluorescence intensity [12, 27]: 53 MFI
- fluorescence intensity [12, 28]: 440 MFI
- fluorescence intensity [13, 21]: 17.5 MFI
- fluorescence intensity [13, 22]: 15.5 MFI
- fluorescence intensity [13, 23]: 17.8 MFI
- fluorescence intensity [13, 24]: 14 MFI
- fluorescence intensity [13, 25]: 17 MFI
- fluorescence intensity [13, 26]: 16 MFI
- fluorescence intensity [13, 27]: 23.8 MFI
- fluorescence intensity [13, 28]: 70 MFI
- fluorescence intensity [14, 21]: 16 MFI
- fluorescence intensity [14, 22]: 15.5 MFI
- fluorescence intensity [14, 23]: 14.5 MFI
- fluorescence intensity [14, 24]: 16 MFI
- fluorescence intensity [14, 25]: 16.5 MFI
- fluorescence intensity [14, 26]: 17 MFI
- fluorescence intensity [14, 27]: 20.5 MFI
- fluorescence intensity [14, 28]: 57.5 MFI
- fluorescence intensity [15, 21]: 14.5 MFI
- fluorescence intensity [15, 22]: 16.5 MFI
- fluorescence intensity [15, 23]: 15 MFI
- fluorescence intensity [15, 24]: 17.8 MFI
- fluorescence intensity [15, 25]: 17 MFI
- fluorescence intensity [15, 26]: 19.5 MFI
- fluorescence intensity [15, 27]: 42 MFI
- fluorescence intensity [15, 28]: 293 MFI
- fluorescence intensity [16, 21]: 22 MFI
- fluorescence intensity [16, 22]: 21.5 MFI
- fluorescence intensity [16, 23]: 22.5 MFI
- fluorescence intensity [16, 24]: 21.8 MFI
- fluorescence intensity [16, 25]: 22.8 MFI
- fluorescence intensity [16, 26]: 27 MFI
- fluorescence intensity [16, 27]: 33.2 MFI
- fluorescence intensity [16, 28]: 46.5 MFI
- fluorescence intensity [17, 21]: 19 MFI
- fluorescence intensity [17, 22]: 20 MFI
- fluorescence intensity [17, 23]: 18.5 MFI
- fluorescence intensity [17, 24]: 20.5 MFI
- fluorescence intensity [17, 25]: 19.2 MFI
- fluorescence intensity [17, 26]: 20 MFI
- fluorescence intensity [17, 27]: 25 MFI
- fluorescence intensity [17, 28]: 69.8 MFI
- fluorescence intensity [18, 21]: 18 MFI
- fluorescence intensity [18, 22]: 17.5 MFI
- fluorescence intensity [18, 23]: 18 MFI
- fluorescence intensity [18, 24]: 18.2 MFI
- fluorescence intensity [18, 25]: 18 MFI
- fluorescence intensity [18, 26]: 17.8 MFI
- fluorescence intensity [18, 27]: 21 MFI
- fluorescence intensity [18, 28]: 47.2 MFI
- fluorescence intensity [19, 21]: 15.5 MFI
- fluorescence intensity [19, 22]: 16 MFI
- fluorescence intensity [19, 23]: 14.5 MFI
- fluorescence intensity [19, 24]: 15.5 MFI
- fluorescence intensity [19, 25]: 17 MFI
- fluorescence intensity [19, 26]: 16.5 MFI
- fluorescence intensity [19, 27]: 22.5 MFI
- fluorescence intensity [19, 28]: 63.5 MFI
- fluorescence intensity [20, 21]: 15 MFI
- fluorescence intensity [20, 22]: 15.5 MFI
- fluorescence intensity [20, 23]: 15 MFI
- fluorescence intensity [20, 24]: 15.5 MFI
- fluorescence intensity [20, 25]: 15.5 MFI
- fluorescence intensity [20, 26]: 16.5 MFI
- fluorescence intensity [20, 27]: 18.5 MFI
- fluorescence intensity [20, 28]: 23.5 MFI

Reference: the supplement of paper PMC11438910
